Reference: the supplement of paper PMC10849652
This is one part of the list.

Chains of the proteins cited; added tags and fusions are not shown. Lines headed by an entry give the natural chain unless they say otherwise; changes in a name come on top.
UniProt Q9UQ49: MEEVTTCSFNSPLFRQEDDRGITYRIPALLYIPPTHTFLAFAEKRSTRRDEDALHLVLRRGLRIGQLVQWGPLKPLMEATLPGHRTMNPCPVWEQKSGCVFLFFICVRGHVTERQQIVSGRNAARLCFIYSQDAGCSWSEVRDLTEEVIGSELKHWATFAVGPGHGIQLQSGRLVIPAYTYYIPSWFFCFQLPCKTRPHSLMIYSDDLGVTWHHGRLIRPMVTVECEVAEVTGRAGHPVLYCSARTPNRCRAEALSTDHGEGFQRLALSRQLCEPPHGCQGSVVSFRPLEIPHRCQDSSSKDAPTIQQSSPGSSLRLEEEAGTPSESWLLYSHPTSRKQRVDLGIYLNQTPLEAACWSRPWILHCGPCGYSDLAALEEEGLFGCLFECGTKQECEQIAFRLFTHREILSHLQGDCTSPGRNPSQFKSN
UniProt Q92597: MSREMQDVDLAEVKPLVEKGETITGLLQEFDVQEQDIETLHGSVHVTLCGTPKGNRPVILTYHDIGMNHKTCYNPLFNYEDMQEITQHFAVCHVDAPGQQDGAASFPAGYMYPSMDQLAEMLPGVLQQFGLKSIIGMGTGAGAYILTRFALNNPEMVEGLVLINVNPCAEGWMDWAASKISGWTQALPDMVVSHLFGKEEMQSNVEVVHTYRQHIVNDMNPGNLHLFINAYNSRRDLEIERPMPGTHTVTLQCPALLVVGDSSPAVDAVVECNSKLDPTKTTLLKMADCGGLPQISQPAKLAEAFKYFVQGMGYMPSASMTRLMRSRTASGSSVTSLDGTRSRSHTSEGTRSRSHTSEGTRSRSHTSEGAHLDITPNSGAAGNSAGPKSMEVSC
UniProt Q9BS92: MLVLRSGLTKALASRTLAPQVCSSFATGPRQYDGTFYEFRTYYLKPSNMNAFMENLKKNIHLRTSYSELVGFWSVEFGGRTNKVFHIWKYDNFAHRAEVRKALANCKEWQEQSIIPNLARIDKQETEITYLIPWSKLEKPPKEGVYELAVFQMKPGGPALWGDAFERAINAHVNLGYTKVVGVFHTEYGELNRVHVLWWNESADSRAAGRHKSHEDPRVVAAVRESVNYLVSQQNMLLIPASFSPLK
UniProt Q9UHB4: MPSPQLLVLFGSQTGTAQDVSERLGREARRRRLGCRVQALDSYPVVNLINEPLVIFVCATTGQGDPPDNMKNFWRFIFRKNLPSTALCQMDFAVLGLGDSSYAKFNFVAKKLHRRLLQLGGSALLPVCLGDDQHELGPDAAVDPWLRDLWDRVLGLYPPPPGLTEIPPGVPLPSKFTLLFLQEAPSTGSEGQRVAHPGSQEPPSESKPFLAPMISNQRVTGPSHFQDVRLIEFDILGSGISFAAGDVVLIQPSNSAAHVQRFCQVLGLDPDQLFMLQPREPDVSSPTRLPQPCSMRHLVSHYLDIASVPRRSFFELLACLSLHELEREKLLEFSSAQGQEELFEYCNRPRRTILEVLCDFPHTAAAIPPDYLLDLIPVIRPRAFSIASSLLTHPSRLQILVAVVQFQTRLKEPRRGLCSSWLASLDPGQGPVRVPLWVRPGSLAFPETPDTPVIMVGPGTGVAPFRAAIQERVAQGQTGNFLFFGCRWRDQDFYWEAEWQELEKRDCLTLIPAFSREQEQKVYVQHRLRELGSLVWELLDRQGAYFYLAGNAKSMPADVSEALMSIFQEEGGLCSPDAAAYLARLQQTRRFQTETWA
UniProt Q9Y6M9, whole entry, looked up: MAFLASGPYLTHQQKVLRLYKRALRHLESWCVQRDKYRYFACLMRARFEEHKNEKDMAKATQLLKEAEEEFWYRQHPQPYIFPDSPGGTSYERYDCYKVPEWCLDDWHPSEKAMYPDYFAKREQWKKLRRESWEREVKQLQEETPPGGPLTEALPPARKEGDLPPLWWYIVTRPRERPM
UniProt Q330K2: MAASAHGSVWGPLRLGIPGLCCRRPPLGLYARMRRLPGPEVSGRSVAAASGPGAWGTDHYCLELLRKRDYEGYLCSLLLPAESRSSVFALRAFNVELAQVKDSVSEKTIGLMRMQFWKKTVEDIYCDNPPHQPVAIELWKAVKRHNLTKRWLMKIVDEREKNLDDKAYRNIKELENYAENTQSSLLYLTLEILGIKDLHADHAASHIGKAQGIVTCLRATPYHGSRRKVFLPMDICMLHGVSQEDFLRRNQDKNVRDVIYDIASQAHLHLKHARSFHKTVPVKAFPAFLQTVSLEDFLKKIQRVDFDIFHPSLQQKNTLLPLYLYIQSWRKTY
UniProt Q5TEU4: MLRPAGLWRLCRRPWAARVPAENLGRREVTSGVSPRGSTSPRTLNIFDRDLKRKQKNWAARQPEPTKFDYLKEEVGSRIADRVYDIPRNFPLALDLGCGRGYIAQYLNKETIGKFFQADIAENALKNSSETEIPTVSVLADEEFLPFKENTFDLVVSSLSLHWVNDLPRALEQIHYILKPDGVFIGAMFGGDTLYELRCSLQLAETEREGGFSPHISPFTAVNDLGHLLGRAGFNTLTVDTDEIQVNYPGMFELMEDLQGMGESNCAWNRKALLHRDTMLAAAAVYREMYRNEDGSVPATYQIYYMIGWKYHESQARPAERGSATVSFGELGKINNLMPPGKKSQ
UniProt O95169, whole entry, looked up: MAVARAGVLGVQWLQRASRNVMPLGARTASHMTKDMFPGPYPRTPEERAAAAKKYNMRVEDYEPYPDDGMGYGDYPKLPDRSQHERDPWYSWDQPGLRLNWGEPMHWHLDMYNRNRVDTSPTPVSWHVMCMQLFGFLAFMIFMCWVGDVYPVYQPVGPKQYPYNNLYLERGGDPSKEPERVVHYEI

Legend:
Experiment in all cases: log2 fold change, soluble protein after heating vs DMSO (PISA); higher = thermal stabilisation; K562 lysate, 10 uM; active = over 0.2 and 3.5 SD of the protein, either way, in both replicates (recomputed)
ibrutinib = compound: C=CC(=O)N1CCC[C@@H](n2nc(-c3ccc(Oc4ccccc4)cc3)c3c(N)ncnc32)C1 [ibrutinib]
How it was run: (§1)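 The values are log-two fold changes in thermal stability compared with solvent controls and come from duplicates. They were obtained by TMTpro 16plex LC-MS/MS, with channel sums equalised, on the supernatant after 21,000xg for 90 min. That supernatant came from crude K562 extract at 1 mg/mL protein treated with 10 μM compound for 30 min, heated for 3 min across 48°C-58°C, pooled and brought to 0.5% NP-40 at 4°C.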

[1] = compound: CC(=O)c1cnc2ccc(-c3cc(Cl)c(O)c(Cl)c3)nc2c1N[C@H]1CC[C@H](CN(C)C)CC1
How it was run: as §1

ralimetinib = compound: CC(C)(C)Cn1c(N)nc2ccc(-c3[nH]c(C(C)(C)C)nc3-c3ccc(F)cc3)nc21 [ralimetinib]
How it was run: as §1

[2] = compound: CC(C)(O)CC(=O)NCCn1ccc2ncnc(Nc3ccc(Oc4cccc(C(F)(F)F)c4)c(Cl)c3)c21
How it was run: as §1

[3] = compound: CC(C)C1=C2N=C(C=C(N2N=C1)NCC3=CC=CC=C3)NCCCCCCN
How it was run: as §1

[4] = compound: CC1=C(C(CC(=O)N1)C2=CC=C(C=C2)C(F)(F)F)C(=O)NC3=C(C=C4C(=C3)C=NN4)F
How it was run: as §1

[5] = compound: CC1=C(C2=C(C=C1)C(=O)C3=CC=CC=C3N2CCCN)C
How it was run: as §1

[6] = compound: CC1=C(C=C(C=C1)NC(=O)C2=CC(=CC=C2)C(C)(C)C#N)NC3=CC4=C(C=C3)N=CN(C4=O)C
How it was run: as §1

[7] = compound: CC1=C(C=C(C=C1)NC(=O)C2=CC(=CC=C2)N(C)C)NC(=O)C3=CC=C(C=C3)O
How it was run: as §1

[8] = compound: CC1=CC=C(C=C1)SC2=C3C=C(SC3=CN=C2)C(=O)N
How it was run: as §1

vemurafenib = compound: CCCS(=O)(=O)Nc1ccc(F)c(C(=O)c2c[nH]c3ncc(-c4ccc(Cl)cc4)cc23)c1F [vemurafenib]
How it was run: as §1

[9] = compound: CCCS(=O)(=O)Nc1ccc(F)c(C(=O)c2c[nH]c3ncc(Cl)cc23)c1F
How it was run: as §1

barasertib = compound: CCN(CCCOc1ccc2c(Nc3cc(CC(=O)Nc4cccc(F)c4)[nH]n3)ncnc2c1)CCOP(=O)(O)O [barasertib]
How it was run: as §1

[10] = compound: CC[C@@H]1C(=O)N(C)c2cnc(Nc3ccc(C(=O)NC4CCN(C)CC4)cc3OC)nc2N1C1CCCC1
How it was run: as §1

volasertib = compound: CC[C@@H]1C(=O)N(C)c2cnc(Nc3ccc(C(=O)N[C@H]4CC[C@H](N5CCN(CC6CC6)CC5)CC4)cc3OC)nc2N1C(C)C [volasertib]
How it was run: as §1

[11] = compound: CCn1c(C(=O)N(C2CC2)C2CC2)cc2c3c(ncn3C)c(Nc3cc(C)n(C)n3)nc21
How it was run: as §1

saracatinib = compound: CN1CCN(CCOc2cc(OC3CCOCC3)c3c(Nc4c(Cl)ccc5c4OCO5)ncnc3c2)CC1 [saracatinib]
How it was run: as §1

sotrastaurin = compound: CN1CCN(c2nc(C3=C(c4c[nH]c5ccccc45)C(=O)NC3=O)c3ccccc3n2)CC1 [sotrastaurin]
How it was run: as §1

[12] = compound: CCn1cc(-c2ccnc3[nH]c(-c4cccc(CN(C)C)c4)cc23)c(-c2ccc(NC(=O)N(C)C)cc2)n1
How it was run: as §1

[13] = compound: CN1CCC(CNc2ccc3ncc(-c4cccc(OC(F)(F)F)c4)n3n2)CC1
How it was run: as §1

Measured: log2 fold change

NEU3 isoform 2 (UniProt Q9UQ49)
inactive: ibrutinib -0.052 | [1] 0.124 | ralimetinib 0.034 | [2] -0.025 | [3] 0.041 | [4] 0.002 | [5] -0.009 | [6] 0.034 | [7] 0.023 | [8] 0.036 | vemurafenib 0.115 | [9] 0.067 | barasertib 0.134 | [10] -0.063 | volasertib -0.038 | [11] 0.034 | saracatinib -0.139 | sotrastaurin 0.111

NDRG1 (UniProt Q92597)
inactive: ibrutinib 0.048 | [1] 0.028 | ralimetinib -0.015 | [2] -0.039 | [3] 0.049 | [5] 0.016 | [6] -0.014 | [7] 0.094 | [8] -0.08 | vemurafenib 0.147 | [9] 0.048 | barasertib 0.105 | volasertib -0.05 | [11] -0.142 | [12] -0.018 | [13] -0.179 | saracatinib 0 | sotrastaurin 0.014

NIPSNAP3B (UniProt Q9BS92)
inactive: ibrutinib 0.066 | [1] 0.047 | ralimetinib 0.011 | [2] -0.091 | [3] -0.007 | [4] 0.004 | [6] 0.079 | [7] 0.023 | [8] 0.038 | vemurafenib 0.098 | [9] 0.056 | barasertib -0.129 | [10] -0.063 | volasertib -0.021 | [11] 0.045 | [12] -0.12 | [13] 0.031 | sotrastaurin -0.1

NDOR1 isoform 2 (UniProt Q9UHB4)
inactive: ibrutinib 0.013 | [1] -0.014 | ralimetinib -0.023 | [2] -0.032 | [3] -0.018 | [4] 0.033 | [5] -0.062 | [6] 0 | [7] 0.052 | [8] -0.039 | vemurafenib 0.012 | [9] 0.036 | barasertib 0.058 | [10] 0.104 | volasertib -0.048 | [11] 0 | [12] -0.014 | [13] 0.025 | saracatinib 0.018 | sotrastaurin -0.012

NDUFB9 (UniProt Q9Y6M9)
inactive: ibrutinib 0.039 | [1] -0.027 | ralimetinib 0.018 | [2] -0.003 | [3] 0.007 | [4] 0.027 | [5] 0.015 | [6] -0.012 | [7] -0.02 | [8] -0.011 | vemurafenib -0.037 | [9] 0.026 | barasertib -0.001 | [10] 0.008 | volasertib 0.007 | [11] -0.016 | [12] 0.039 | [13] -0.049 | saracatinib 0.025 | sotrastaurin -0.021

NDUFAF6 (UniProt Q330K2)
inactive: ibrutinib 0.068 | [1] 0.01 | ralimetinib 0.008 | [2] -0.1 | [3] 0.092 | [4] 0.007 | [5] 0.072 | [6] -0.032 | [7] -0.1 | [8] 0.012 | [9] 0.04 | barasertib 0.094 | [10] -0.017 | volasertib -0.057 | [11] 0.145 | [12] -0.107 | [13] -0.316 | saracatinib -0.012 | sotrastaurin -0.073

NDUFAF5 (UniProt Q5TEU4)
inactive: ibrutinib -0.007 | [1] 0.021 | ralimetinib -0.011 | [2] -0.008 | [3] -0.029 | [5] 0.043 | [6] 0.076 | [7] -0.026 | [8] -0.048 | vemurafenib -0.015 | [9] 0.007 | barasertib -0.032 | [10] 0.127 | volasertib 0.04 | [11] -0.103 | [12] -0.052 | [13] 0.035 | saracatinib 0.179 | sotrastaurin 0

NDUFB8 (UniProt O95169)
inactive: ibrutinib -0.008 | [1] -0.056 | ralimetinib 0.027 | [2] -0.021 | [3] -0.008 | [4] -0.058 | [5] -0.002 | [6] 0.084 | [7] 0 | [8] 0.022 | vemurafenib -0.04 | [9] -0.02 | barasertib 0.018 | [10] -0.036 | volasertib 0.054 | [11] 0 | [12] -0.008 | [13] -0.049 | saracatinib 0.045 | sotrastaurin -0.046

2 neighbouring entries from above, quoted:
NDUFAF5 (UniProt Q5TEU4)
inactive: ibrutinib -0.007 | [1] 0.021 | ralimetinib -0.011 | [2] -0.008 | [3] -0.029 | [5] 0.043 | [6] 0.076 | [7] -0.026 | [8] -0.048 | vemurafenib -0.015 | [9] 0.007 | barasertib -0.032 | [10] 0.127 | volasertib 0.04 | [11] -0.103 | [12] -0.052 | [13] 0.035 | saracatinib 0.179 | sotrastaurin 0

NDUFB8 (UniProt O95169)
inactive: ibrutinib -0.008 | [1] -0.056 | ralimetinib 0.027 | [2] -0.021 | [3] -0.008 | [4] -0.058 | [5] -0.002 | [6] 0.084 | [7] 0 | [8] 0.022 | vemurafenib -0.04 | [9] -0.02 | barasertib 0.018 | [10] -0.036 | volasertib 0.054 | [11] 0 | [12] -0.008 | [13] -0.049 | saracatinib 0.045 | sotrastaurin -0.046
